The labels stand for the following.
T1: HISTONE … 9 (HDA9), yeast two-hybrid fusion (Arabidopsis thaliana) (UniProt Q8H0W2)
T1 sequence: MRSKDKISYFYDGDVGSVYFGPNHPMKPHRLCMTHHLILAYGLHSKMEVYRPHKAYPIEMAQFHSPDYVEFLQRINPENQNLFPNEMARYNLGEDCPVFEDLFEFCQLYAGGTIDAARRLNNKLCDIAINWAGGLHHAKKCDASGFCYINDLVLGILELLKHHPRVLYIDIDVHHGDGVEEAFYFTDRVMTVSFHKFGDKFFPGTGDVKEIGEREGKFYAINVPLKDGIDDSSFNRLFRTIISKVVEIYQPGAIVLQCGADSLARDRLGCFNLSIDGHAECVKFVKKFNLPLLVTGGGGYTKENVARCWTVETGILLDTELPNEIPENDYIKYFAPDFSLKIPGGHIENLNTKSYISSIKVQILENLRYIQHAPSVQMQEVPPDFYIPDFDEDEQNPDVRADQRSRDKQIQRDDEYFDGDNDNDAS

B1: ABF3, yeast two-hybrid fusion (protein, UniProt Q9M7Q3 1-454)
chain: MGSRLNFKSFVDGVSEQQPTVGTSLPLTRQNSVFSLTFDEFQNSWGGGIGKDFGSMNMDELLKNIWTAEESHSMMGNNTSYTNISNGNSGNTVINGGGNNIGGLAVGVGGESGGFFTGGSLQRQGSLTLPRTISQKRVDDVWKELMKEDDIGNGVVNGGTSGIPQRQQTLGEMTLEEFLVRAGVVREEPQPVESVTNFNGGFYGFGSNGGLGTASNGFVANQPQDLSGNGVAVRQDLLTAQTQPLQMQQPQMVQQPQMVQQPQQLIQTQERPFPKQTTIAFSNTVDVVNRSQPATQCQEVKPSILGIHNHPMNNNLLQAVDFKTGVTVAAVSPGSQMSPDLTPKSALDASLSPVPYMFGRVRKTGAVLEKVIERRQKRMIKNRESAARSRARKQAYTMELEAEIAQLKELNEELQKKQVEIMEKQKNQLLEPLRQPWGMGCKRQCLRRTLTGPW
B2: ABF2, yeast two-hybrid fusion (protein, UniProt Q9M7Q4 1-416)
chain: MDGSMNLGNEPPGDGGGGGGLTRQGSIYSLTFDEFQSSVGKDFGSMNMDELLKNIWSAEETQAMASGVVPVLGGGQEGLQLQRQGSLTLPRTLSQKTVDQVWKDLSKVGSSGVGGSNLSQVAQAQSQSQSQRQQTLGEVTLEEFLVRAGVVREEAQVAARAQIAENNKGGYFGNDANTGFSVEFQQPSPRVVAAGVMGNLGAETANSLQVQGSSLPLNVNGARTTYQQSQQQQPIMPKQPGFGYGTQMGQLNSPGIRGGGLVGLGDQSLTNNVGFVQGASAAIPGALGVGAVSPVTPLSSEGIGKSNGDSSSLSPSPYMFNGGVRGRKSGTVEKVVERRQRRMIKNRESAARSRARKQAYTVELEAEVAKLKEENDELQRKQARIMEMQKNQETEMRNLLQGGPKKKLRRTESGPW
B3: ABA … 5 (ABI5), yeast two-hybrid fusion (protein, UniProt Q9SJN0 1-442)
chain: MVTRETKLTSEREVESSMAQARHNGGGGGENHPFTSLGRQSSIYSLTLDEFQHALCENGKNFGSMNMDEFLVSIWNAEENNNNQQQAAAAAGSHSVPANHNGFNNNNNNGGEGGVGVFSGGSRGNEDANNKRGIANESSLPRQGSLTLPAPLCRKTVDEVWSEIHRGGGSGNGGDSNGRSSSSNGQNNAQNGGETAARQPTFGEMTLEDFLVKAGVVREHPTNPKPNPNPNQNQNPSSVIPAAAQQQLYGVFQGTGDPSFPGQAMGVGDPSGYAKRTGGGGYQQAPPVQAGVCYGGGVGFGAGGQQMGMVGPLSPVSSDGLGHGQVDNIGGQYGVDMGGLRGRKRVVDGPVEKVVERRQRRMIKNRESAARSRARKQAYTVELEAELNQLKEENAQLKHALAELERKRKQQYFESLKSRAQPKLPKSNGRLRTLMRNPSCPL
B4: ABF1, yeast two-hybrid fusion (protein, UniProt Q9M7Q5 1-392)
chain: MGTHIDINNLGGDTSRGNESKPLARQSSLYSLTFDELQSTLGEPGKDFGSMNMDELLKNIWTAEDTQAFMTTTSSVAAPGPSGFVPGGNGLQRQGSLTLPRTLSQKTVDEVWKYLNSKEGSNGNTGTDALERQQTLGEMTLEDFLLRAGVVKEDNTQQNENSSSGFYANNGAAGLEFGFGQPNQNSISFNGNNSSMIMNQAPGLGLKVGGTMQQQQQPHQQQLQQPHQRLPPTIFPKQANVTFAAPVNMVNRGLFETSADGPANSNMGGAGGTVTATSPGTSSAENNTWSSPVPYVFGRGRRSNTGLEKVVERRQKRMIKNRESAARSRARKQAYTLELEAEIESLKLVNQDLQKKQAEIMKTHNSELKEFSKQPPLLAKRQCLRRTLTGPW

Results are given in words; binding and its absence hold for the method and conditions named. Tags and fused reporters may be left off the sequences shown.

This test deals with T1, HISTONE … 9 (HDA9), yeast two-hybrid fusion (Arabidopsis thaliana). As to the kind of experiment: two-hybrid; Gal4 system, pDEST22 (activation domain) and pDEST32 (DNA-binding domain) in S. cerevisiae YRG2; growth on SD/-Trp-Leu-His with 25 mM 3-AT; empty vector as negative control.
As to B1, the binding result was “no binding”. On to B2, for which the binding entry is reported as “no binding”. As for B3, the binding result is “no binding”.

Consider B4, for which the binding entry is “no binding”.

The values are drawn from publication PMC7052305.
